Experimental data as given in publication doi:10.1101/2020.11.11.20227777.
No constants are given. Whether binding was seen depends on the method and setting. In cells and extracts the contact can be indirect. Some entries that bind do so weakly or less than the wild type.

The chains behind the UniProt entries cited, without tags or fusion partners. Residues count along the entry.
UniProt Q9NY15, residues 26-2570: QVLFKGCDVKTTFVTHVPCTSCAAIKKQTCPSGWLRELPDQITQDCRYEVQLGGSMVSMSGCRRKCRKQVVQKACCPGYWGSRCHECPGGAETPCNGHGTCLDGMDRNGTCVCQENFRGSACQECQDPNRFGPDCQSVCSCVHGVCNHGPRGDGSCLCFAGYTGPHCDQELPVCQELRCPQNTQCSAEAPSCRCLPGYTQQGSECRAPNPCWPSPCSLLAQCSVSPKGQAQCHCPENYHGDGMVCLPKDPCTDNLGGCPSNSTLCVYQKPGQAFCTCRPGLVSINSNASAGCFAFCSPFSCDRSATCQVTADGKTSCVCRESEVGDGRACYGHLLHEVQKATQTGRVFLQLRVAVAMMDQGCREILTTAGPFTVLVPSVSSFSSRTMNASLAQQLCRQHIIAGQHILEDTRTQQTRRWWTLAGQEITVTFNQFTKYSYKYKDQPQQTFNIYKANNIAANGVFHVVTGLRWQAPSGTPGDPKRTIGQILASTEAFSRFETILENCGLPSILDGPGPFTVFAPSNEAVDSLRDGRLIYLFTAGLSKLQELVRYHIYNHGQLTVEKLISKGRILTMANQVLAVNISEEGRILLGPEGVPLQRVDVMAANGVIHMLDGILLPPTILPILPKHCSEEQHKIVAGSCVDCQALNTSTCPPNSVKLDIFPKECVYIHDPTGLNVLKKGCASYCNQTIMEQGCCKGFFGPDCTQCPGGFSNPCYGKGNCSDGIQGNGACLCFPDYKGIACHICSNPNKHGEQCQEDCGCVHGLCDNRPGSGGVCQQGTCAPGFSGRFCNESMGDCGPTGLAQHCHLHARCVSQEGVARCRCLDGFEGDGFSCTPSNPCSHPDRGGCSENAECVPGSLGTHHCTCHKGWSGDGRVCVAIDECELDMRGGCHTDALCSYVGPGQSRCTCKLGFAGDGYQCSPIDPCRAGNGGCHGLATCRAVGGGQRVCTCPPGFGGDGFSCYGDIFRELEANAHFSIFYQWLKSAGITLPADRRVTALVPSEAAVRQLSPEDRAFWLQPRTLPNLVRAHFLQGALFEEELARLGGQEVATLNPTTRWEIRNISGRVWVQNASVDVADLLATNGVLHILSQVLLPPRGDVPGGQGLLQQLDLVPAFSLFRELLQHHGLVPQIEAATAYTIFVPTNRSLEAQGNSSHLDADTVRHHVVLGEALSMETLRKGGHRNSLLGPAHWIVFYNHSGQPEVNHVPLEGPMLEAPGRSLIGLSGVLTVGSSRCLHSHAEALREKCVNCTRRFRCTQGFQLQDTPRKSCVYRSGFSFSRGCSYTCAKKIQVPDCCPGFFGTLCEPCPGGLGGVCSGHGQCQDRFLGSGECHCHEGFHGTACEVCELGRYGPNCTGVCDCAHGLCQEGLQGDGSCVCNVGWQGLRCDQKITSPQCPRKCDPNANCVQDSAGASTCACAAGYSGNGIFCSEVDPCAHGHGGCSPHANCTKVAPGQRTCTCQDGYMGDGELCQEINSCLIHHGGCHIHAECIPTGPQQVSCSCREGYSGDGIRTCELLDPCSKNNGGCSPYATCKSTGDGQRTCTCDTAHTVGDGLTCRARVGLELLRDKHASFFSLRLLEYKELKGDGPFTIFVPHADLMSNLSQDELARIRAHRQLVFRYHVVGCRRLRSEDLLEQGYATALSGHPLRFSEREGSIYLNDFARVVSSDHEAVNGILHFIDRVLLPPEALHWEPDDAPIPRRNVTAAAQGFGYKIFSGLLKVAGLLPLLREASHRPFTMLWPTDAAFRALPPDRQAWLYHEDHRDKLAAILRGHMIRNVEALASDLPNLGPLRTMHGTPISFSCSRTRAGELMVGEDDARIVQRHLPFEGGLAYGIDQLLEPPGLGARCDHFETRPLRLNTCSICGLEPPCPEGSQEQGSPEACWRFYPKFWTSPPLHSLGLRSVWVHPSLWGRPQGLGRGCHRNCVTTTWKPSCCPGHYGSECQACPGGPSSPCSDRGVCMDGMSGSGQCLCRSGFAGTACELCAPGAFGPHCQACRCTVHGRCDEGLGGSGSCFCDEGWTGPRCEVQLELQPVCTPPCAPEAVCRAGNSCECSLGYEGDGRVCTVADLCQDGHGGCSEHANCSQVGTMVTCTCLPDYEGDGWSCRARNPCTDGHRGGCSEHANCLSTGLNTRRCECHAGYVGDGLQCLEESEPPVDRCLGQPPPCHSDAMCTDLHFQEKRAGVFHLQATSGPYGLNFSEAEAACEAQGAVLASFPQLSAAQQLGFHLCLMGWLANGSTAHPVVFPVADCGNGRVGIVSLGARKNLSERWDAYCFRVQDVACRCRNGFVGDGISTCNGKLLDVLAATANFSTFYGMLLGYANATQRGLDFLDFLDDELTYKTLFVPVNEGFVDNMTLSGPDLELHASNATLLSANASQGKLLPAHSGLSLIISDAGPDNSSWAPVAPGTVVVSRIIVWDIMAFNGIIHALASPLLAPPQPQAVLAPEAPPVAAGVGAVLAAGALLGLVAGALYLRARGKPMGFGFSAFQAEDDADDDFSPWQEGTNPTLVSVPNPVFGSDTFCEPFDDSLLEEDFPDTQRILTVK
UniProt Q93050: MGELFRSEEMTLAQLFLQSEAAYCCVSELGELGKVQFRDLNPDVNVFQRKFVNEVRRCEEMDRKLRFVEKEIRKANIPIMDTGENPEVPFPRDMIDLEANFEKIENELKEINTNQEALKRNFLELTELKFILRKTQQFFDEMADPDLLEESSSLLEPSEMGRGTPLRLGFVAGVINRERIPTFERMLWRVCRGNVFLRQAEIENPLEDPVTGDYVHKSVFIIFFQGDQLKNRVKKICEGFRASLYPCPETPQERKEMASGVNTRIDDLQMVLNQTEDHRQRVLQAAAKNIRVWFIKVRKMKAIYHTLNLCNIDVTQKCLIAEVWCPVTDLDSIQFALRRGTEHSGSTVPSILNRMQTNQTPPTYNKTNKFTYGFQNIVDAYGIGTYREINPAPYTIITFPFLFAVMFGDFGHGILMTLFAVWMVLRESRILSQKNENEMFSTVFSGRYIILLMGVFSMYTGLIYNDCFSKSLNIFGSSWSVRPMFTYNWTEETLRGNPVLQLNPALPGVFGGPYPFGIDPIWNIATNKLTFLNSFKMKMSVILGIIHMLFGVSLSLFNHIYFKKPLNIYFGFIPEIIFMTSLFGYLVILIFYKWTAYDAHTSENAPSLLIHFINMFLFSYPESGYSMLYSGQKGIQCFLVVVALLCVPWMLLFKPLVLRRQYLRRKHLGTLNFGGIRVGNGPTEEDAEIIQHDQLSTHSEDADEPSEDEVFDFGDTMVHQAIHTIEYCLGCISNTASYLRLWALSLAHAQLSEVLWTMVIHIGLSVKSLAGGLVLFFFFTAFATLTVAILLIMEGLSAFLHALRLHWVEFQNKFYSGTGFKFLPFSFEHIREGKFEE
UniProt Q13488: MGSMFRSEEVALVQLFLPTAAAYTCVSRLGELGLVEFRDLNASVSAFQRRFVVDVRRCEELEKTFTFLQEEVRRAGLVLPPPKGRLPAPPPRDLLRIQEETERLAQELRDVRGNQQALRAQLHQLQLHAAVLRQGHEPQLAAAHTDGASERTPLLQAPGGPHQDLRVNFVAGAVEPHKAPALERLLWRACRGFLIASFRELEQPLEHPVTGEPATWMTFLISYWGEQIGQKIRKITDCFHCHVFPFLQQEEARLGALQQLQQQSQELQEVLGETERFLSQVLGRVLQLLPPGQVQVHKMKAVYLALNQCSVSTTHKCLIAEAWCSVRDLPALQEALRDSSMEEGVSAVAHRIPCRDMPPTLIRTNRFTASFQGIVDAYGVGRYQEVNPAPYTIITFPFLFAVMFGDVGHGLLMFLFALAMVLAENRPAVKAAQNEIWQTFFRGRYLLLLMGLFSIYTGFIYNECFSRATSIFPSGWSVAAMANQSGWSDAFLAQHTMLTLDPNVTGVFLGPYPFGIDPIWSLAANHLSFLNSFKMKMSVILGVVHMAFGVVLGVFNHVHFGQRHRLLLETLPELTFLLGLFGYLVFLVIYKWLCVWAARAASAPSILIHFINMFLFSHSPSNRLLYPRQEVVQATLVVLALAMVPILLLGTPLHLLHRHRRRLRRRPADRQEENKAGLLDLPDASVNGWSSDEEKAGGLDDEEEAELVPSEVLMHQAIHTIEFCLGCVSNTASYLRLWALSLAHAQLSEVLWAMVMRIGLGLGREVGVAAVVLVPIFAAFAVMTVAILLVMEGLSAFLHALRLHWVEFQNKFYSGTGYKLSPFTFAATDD

Biological target: Clever-1 (human (endogenous in primary macrophages)) (UniProt Q9NY15)
Assay: co-IP

| binding | Substance |
| --- | --- |
| binds | ATP6V0A1 (from UniProt Q93050 1-837) |
| binds | TCIRG1 (from UniProt Q13488 1-830) |
